# Data source: PubChem BioAssay AID686937 (Drosophila RNAi Screening Center, 2013)
# Assay: 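Genes in the fly needed for secretion of protein constitutively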 (primary screen)
# Cell system: Drosophila S2 cells expressing secreted horseradish peroxidase
# Reagent: long dsRNA against Drosophila genes
# Timing: about 5.5 days (5 days dsRNA, then 12 h reporter induction)
# Conditions: reporter expression induced after 5 days of dsRNA, read 12 h later; inducer not stated
# Read-out: 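Chemiluminescent measurement of peroxidase in the medium 12 h after reporter induction, following 5 days of dsRNA, given as a z-score per plate; higher means more secretion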
# Scale: z-score: higher = more reporter secreted into medium
# The deposit covers about 23,000 reagents; below is a random part of those that have a named target and a result. 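Reduced-secretion tags in replicate 1 do not always agree with the z-scores; no criterion for assigning the tags was given.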 The record does not give: the amount of reagent.
gene knocked down,dsRNA,"z-score, replicate 1","z-score, replicate 2","z-score, replicate 3","z-score, replicate 4","phenotype, replicate 1"
Rab10 (GeneID 33025),DRSC20572,-0.7,0.17,,,
CG15278 (GeneID 34865),DRSC02481,0.57,0.56,,,
CG13359 (GeneID 31028),DRSC18539,0.24,0.33,,,
CG31141 (GeneID 318605),DRSC13646,-0.68,0.09,,,
CG6443 (GeneID 34477),DRSC02958,-0.04,0.15,,,
CtsL1 (GeneID 36546),DRSC05462,-0.03,0.34,,,
CtsL1 (GeneID 36546),DRSC07363,0.2,0.15,,,
Icmt (GeneID 39478),DRSC09834,0.15,0.25,,,
Acbp5 (GeneID 39005),DRSC10548,0.45,0.32,,,
acj6 (GeneID 47080),DRSC20304,-0.05,0.18,,,
mIF3 (GeneID 36335),DRSC06290,0.27,0.03,,,
dan (GeneID 43023),DRSC14406,0.26,0.3,,,
mRpS18A (GeneID 326141),DRSC14369,-0.31,-0.48,,,
cutlet (GeneID 44637),DRSC00284,-0.07,0.13,-0.03,0.08,
Rai1 (GeneID 2768882),DRSC20157,0.3,0.08,,,
Psf3 (GeneID 31967),DRSC18216,0.44,0.45,,,
Psf3 (GeneID 31967),DRSC21487,0.26,0.36,,,
BI-1 (GeneID 38936),DRSC10782,0.19,-0.34,,,
CG3610 (GeneID 41795),DRSC15502,0.55,0.6,,,
Fur2 (GeneID 32604),DRSC19817,-0.14,0.06,,,
Pp2C1 (GeneID 31404),DRSC18699,-0.22,-0.33,,,
dome (GeneID 32976),DRSC19583,-0.04,0.09,,,
Cyt-c1L (GeneID 43457),DRSC14860,0.54,0.65,,,
Cyt-c1L (GeneID 43457),DRSC22096,0.33,0.44,,,
Jhbp5 (GeneID 41949),DRSC14240,0.42,0.28,,,
AQP (GeneID 36456),DRSC06122,0.11,0.14,,,
mip130 (GeneID 31153),DRSC18575,0.08,0.2,,,
Best3 (GeneID 39661),DRSC09880,0.58,0.32,,,
Sgs4 (GeneID 31304),DRSC18715,0.26,0.21,,,
Boh2 (GeneID 34559),DRSC02777,0.19,0.14,,,
CG34164 (GeneID 5740394),DRSC02837,0.3,0.31,,,
sws (GeneID 31716),DRSC18843,0.55,0.69,0.16,0.4,
NELF-B (GeneID 31681),DRSC17734,0.76,0.58,,,
Dscam2 (GeneID 38788),DRSC08869,0.6,-0.12,0.39,0.12,
Dscam2 (GeneID 38788),DRSC10198,0.33,0.32,,,
Dscam2 (GeneID 38788),DRSC10285,-2.46,-3.32,,,reduced secretion
Dscam2 (GeneID 38788),DRSC11018,-0.44,-0.46,,,
Dscam2 (GeneID 38788),DRSC11019,0.29,0.46,,,
Dscam2 (GeneID 38788),DRSC22526,-0.71,0.46,,,
CG40486 (GeneID 3355162),DRSC20619,0.27,0.3,,,
Kr-h1 (GeneID 33861),DRSC00908,-0.95,-0.06,,,
Kr-h1 (GeneID 33861),DRSC03355,-0.21,-0.01,,,
hec (GeneID 32246),DRSC19895,0.39,0.4,,,
cyp33 (GeneID 36984),DRSC07600,-3.87,-4.14,,,reduced secretion
ND-19 (GeneID 37946),DRSC04404,0.22,0.02,0.2,-0.29,
mdlc (GeneID 42397),DRSC15690,-0.57,-0.28,,,
Ing5 (GeneID 34752),DRSC03188,0.72,0.38,,,
Osi13 (GeneID 40769),DRSC12281,0.43,0.04,,,
Eig71Ec (GeneID 39703),DRSC11150,0.26,0.42,,,
CG17841 (GeneID 31965),DRSC17737,0.66,0.52,,,
CR46300 (GeneID 3885581),DRSC12467,0.56,0.5,,,
CG5815 (GeneID 43266),DRSC14135,0.44,0.77,,,
CG30419 (GeneID 37879),DRSC04208,-0.39,0.19,0.34,0.32,
CG30419 (GeneID 37879),DRSC04209,0.19,0.09,0.3,0.21,
CG30419 (GeneID 37879),DRSC22519,1.67,0.41,,,
CG13364 (GeneID 50364),DRSC17898,0.57,0.57,,,
CG13364 (GeneID 50364),DRSC21263,0.33,0.47,,,
CG1998 (GeneID 32300),DRSC19829,0.52,0.6,,,
bc10 (GeneID 38628),DRSC11326,0.06,0.24,,,
Dip-C (GeneID 47769),DRSC15855,0.35,0.49,,,
Cdc14 (GeneID 34067),DRSC03013,0.56,0.59,,,
AP-1mu (GeneID 41150),DRSC14089,0.43,0.42,,,
Nnk (GeneID 42143),DRSC15274,0.18,0.47,,,
CG33476 (GeneID 2768727),DRSC22888,-0.64,-0.17,,,
CG42266 (GeneID 7354431),DRSC21577,0.06,0.8,,,
CG42266 (GeneID 7354431),DRSC21957,1.09,1.24,,,
Hsp110 (GeneID 39557),DRSC11186,-0.09,0.76,,,
Cdc5 (GeneID 38062),DRSC08577,0.16,0.34,,,
GstT2 (GeneID 246386),DRSC06244,0.13,0.35,,,
5PtaseI (GeneID 326119),DRSC16269,0.23,0.31,,,
5PtaseI (GeneID 326119),DRSC22090,0.21,0.13,,,
CG8461 (GeneID 41758),DRSC16424,0.18,0.54,,,
CG3124 (GeneID 37688),DRSC04339,-0.7,-0.62,,,
CG5056 (GeneID 34406),DRSC02808,0,0.06,,,
Grip84 (GeneID 32946),DRSC20248,0.02,0,,,
Scp1 (GeneID 3355102),DRSC20799,0.15,0.27,,,
Scp1 (GeneID 3355102),DRSC20803,0.51,0.48,,,
Scp1 (GeneID 3355102),DRSC20806,0.44,0.11,,,
Acn (GeneID 35173),DRSC02062,0.6,0.44,,,
Muc96D (GeneID 318737),DRSC13709,0.49,0.38,0.63,0.27,
Muc96D (GeneID 318737),DRSC21609,-0.19,-0.32,,,
nst (GeneID 39434),DRSC09755,0.24,0.3,,,

Records listed so far whose target name begins with N or n (4):
gene knocked down,dsRNA,"z-score, replicate 1","z-score, replicate 2","z-score, replicate 3","z-score, replicate 4","phenotype, replicate 1"
NELF-B (GeneID 31681),DRSC17734,0.76,0.58,,,
ND-19 (GeneID 37946),DRSC04404,0.22,0.02,0.2,-0.29,
Nnk (GeneID 42143),DRSC15274,0.18,0.47,,,
nst (GeneID 39434),DRSC09755,0.24,0.3,,,
